# According to patent publication US7829666B2, “Maurotoxin, PI1 and HSTX1 derivatives” (Cellpep Pharma Inc., priority 2000, dated 2010):
# Chains of the proteins cited; added tags and fusions are not shown.
# UniProt P16389, whole entry: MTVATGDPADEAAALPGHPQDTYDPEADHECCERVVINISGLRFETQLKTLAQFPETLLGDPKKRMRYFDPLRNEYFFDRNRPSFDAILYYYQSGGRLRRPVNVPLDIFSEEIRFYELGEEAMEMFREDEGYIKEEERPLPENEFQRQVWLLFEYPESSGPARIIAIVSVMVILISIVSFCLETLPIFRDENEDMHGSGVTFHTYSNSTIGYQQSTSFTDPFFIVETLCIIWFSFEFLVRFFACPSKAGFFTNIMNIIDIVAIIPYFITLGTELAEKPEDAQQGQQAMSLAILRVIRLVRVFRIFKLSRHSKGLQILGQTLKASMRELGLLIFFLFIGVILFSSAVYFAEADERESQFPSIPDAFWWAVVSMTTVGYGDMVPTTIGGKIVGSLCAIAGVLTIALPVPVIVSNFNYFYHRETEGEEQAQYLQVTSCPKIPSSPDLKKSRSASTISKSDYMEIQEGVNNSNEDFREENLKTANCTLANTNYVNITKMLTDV
# Part of at least one peptide drawing is inferred or uncertain, most often the ends. Bridge positions count the residues as written; N and C are the ends. Peptide text beside a SMILES is read from it.
# Target: mammalian voltage-gated Kv1.2 channel subtype (Homo sapiens, UniProt P16389)
# Assay: Blocking activity on voltage-gated Kv1.2 channel
# Type: cell-based
# Description: In one preferred derivative, the substitution of the MTX half-cystine residues (by amino butyrate derivatives) located at positions 9, 19, 29, and 34 (corresponding by numbers to C2, C4, C6, and C8) results in a two disulfide-bridged MTX analog, i.e. VSCTGSKDAbuYAPCRKQTGAbuPNAKCINKSAbuKCYGAbu-NH2 [SEQ. ID NO. 8], with novel, non-native arrangement of the half-cystine pairings (Cys3-Cys24 and Cys13-Cys31).
# An alternative approach to replacement of Cys residues with Abu is the replacement of one or two amino acid residues in natural MTX with other residues which prevent the folding of the molecule in such a way that the unconventional C1-C5, C2-C6, C3-C7 and C4-C8 disulfide bridge arrangement can occur. For instance, if neither of the residues at positions 32 and 33 is a Gly or Pro residue, the folding is altered in such a way that the MTX derivative adopts the conventional C1-C5, C2-C6, C3-C7 and C4-C8 of Pi1 and HsTx1. In particular, replacement of the Gly residue at position 33 by an Ala residue substitution, forming [A33]-MTX [SEQ. ID NO. 4], is effective. Substitution of Arg14 and/or Lys15 by Gln to give [Q14]-MTX [SEQ. ID NO. 5], [Q15]-MTX [SEQ. ID NO. 6] or [Q14,Q15]-MTX [SEQ. ID NO. 7] also induces half-cystine pairings between Cys3-Cys24, Cys9-Cys29, Cys13-Cys31 and Cys19-Cys34.
smiles,measurement,setting,value
"CC[C@H](C)[C@@H]1NC(=O)[C@@H]2CSSC[C@H](NC(=O)[C@H](CO)NC(=O)[C@@H](N)C(C)C)C(=O)N[C@@H]([C@@H](C)O)C(=O)NCC(=O)N[C@@H](CO)C(=O)N[C@@H](CCCCN)C(=O)N[C@@H](CC(=O)O)C(=O)N[C@H]3CSSC[C@H](NC(=O)[C@H](CO)NC(=O)[C@H](CCCCN)NC(=O)[C@H](CC(N)=O)NC1=O)C(=O)N[C@@H](CCCCN)C(=O)N[C@H]1CSSC[C@H](NC(=O)[C@@H]4CCCN4C(=O)[C@H](C)NC(=O)[C@H](Cc4ccc(O)cc4)NC3=O)C(=O)N[C@@H](CCCNC(=N)N)C(=O)N[C@@H](CCC(N)=O)C(=O)N[C@@H](CCC(N)=O)C(=O)N[C@@H]([C@@H](C)O)C(=O)NCC(=O)N[C@@H](CSSC[C@@H](C(N)=O)NC(=O)CNC(=O)[C@H](Cc3ccc(O)cc3)NC1=O)C(=O)N1CCC[C@H]1C(=O)N[C@@H](CC(N)=O)C(=O)N[C@@H](C)C(=O)N[C@@H](CCCCN)C(=O)N2 [[Q15]-MTX] (H-VSCTGSKDCYAPCRQQTGCPNAKCINKSCKCYGC-NH2; disulfide 3-24, 9-29, 13-31, 19-34)","potency on Kv1.2 relative to [Abu9, 19, 29, 34]-MTX",fold more potent,"1,000 times"
same,IC50,read-out: IC50 on Kv1.2,0.047 nM
